Test results published in publication PMC8965888.
These are yes or no findings as the source states them, for the method shown. Binding seen in cells or lysates may run through a third protein.

Target: GST-ATF3 leucine zipper (Zip) domain
Assay: pull-down; 1 ug GST or GST fusion protein immobilized on glutathione-agarose, incubated with 5 ul in vitro-translated protein; 20 mM Tris-HCl pH 8.0, 100 mM NaCl, 2 mM EDTA, 2 mM DTT, 5% glycerol, 0.4% NP-40, 4 C overnight; washes with 150 mM NaCl; Western blotting; only the target purified

B1: in vitro translated PXR (protein, UniProt O75469 1-434)
chain: MEVRPKESWNHADFVHCEDTESVPGKPSVNADEEVGGPQICRVCGDKATGYHFNVMTCEGCKGFFRRAMKRNARLRCPFRKGACEITRKTRRQCQACRLRKCLESGMKKEMIMSDEAVEERRALIKRKKSERTGTQPLGVQGLTEEQRMMIRELMDAQMKTFDTTFSHFKNFRLPGVLSSGCELPESLQAPSREEAAKWSQVRKDLCSLKVSLQLRGEDGSVWNYKPPADSGGKEIFSLLPHMADMSTYMFKGIISFAKVISYFRDLPIEDQISLLKGAAFELCQLRFNTVFNAETGTWECGRLSYCLEDTAGGFQQLLLEPMLKFHYMLKKLQLHEEEYVLMQAISLFSPDRPGVLQHRVVDQLQEQFAITLKSYIECNRPQPAHRFLFLKIMAMLTELRSINAQHTQRLLRIQDIHPFATPLMQELFGITGS
binding: no binding
